Data on one protein can be found in patent US6558918.

Data set [1] has as its target Cdk2/cyclin A complex, P24941.
In data set [2] the target is kinase-deficient Cdc2 mutant (K-) complexed with cyclin B1, P06493.
In data set [3] the target is Cdk4/cyclin D1 complex, P11802.
In data set [4] the target is wild-type Cdc2/cyclin B1 complex, P06493.
The target in data set [5] is Cdk2/cyclin E complex, P24941.
For data set [6], the target named is monomeric Cdc2, P06493.
The target in data set [7] is Cdc2-AF/CyclinB1 complex, P06493.

B1: truncated human Wee1 with N-terminal Glu-Glu tag, expressed in Sf9 cells (protein)
chain: MEYMPMEEVPGLNSAWSMDTEKSGKREFDVRQTPQVNINPFTPDSLLLHSSGQCRRRKRTYWNDSCGEDMEASDYELEDETRPAKRITITESNMKSRYTTEFHELEKIGSGEFGSVFKCVKRLDGCIYAIKRSKKPLAGSVDEQNALREVYAHAVLGQHSHVVRYFSAWAEDDHMLIQNEYCNGGSLADAISENYRIMSYFKEAELKDLLLQVGRGLRYIHSMSLVHMDIKPSNIFISRTSIPNAASEEGDEDDWASNKVMFKIGDLGHVTRISSPQVEEGDSRFLANEVLQENYTHLPKADIFALALTVVCAAGAEPLPRNGDQWHEIRQGRLPRIPQVLSQEFTELLKVMIHPDPERRPSAMALVKHSVLLSASRKSAEQLRIELNAEKFKNSLLQKELKKAQMAKAAAEERALFTDRMATRSTTQSNRTSRLIGKKMNRSVSLTIY
With B1, the “32P-labeling in a kinase reaction with purified proteins” value is “Wee1 readily phosphorylated Cdk2 that was complexed with either cyclin A and cyclin E” in data set [1]; “neither Cell Growth Regulatory Protein nor Wee1 phosphorylated the Cdk4 subunit” in data set [3]; “Wee1 readily phosphorylated Cdk2 that was complexed with either cyclin A and cyclin E” in data set [5]. Moreover, the “32P-labeling in a kinase reaction with affinity purified proteins, SDS-PAGE” value was “both purified Cell Growth Regulatory Protein and Wee1 kinases were capable of phosphorylating wild-type Cdc2 as well as a kinase-deficient Cdc2 mutant (K-), each of which was complexed with cyclin B1” in data set [2]; “both purified Cell Growth Regulatory Protein and Wee1 kinases were capable of phosphorylating wild-type Cdc2 as well as a kinase-deficient Cdc2 mutant (K-), each of which was complexed with cyclin B1” in data set [4]; “the Cdc2-AF mutant was not phosphorylated by Cell Growth Regulatory Protein or Wee1” in data set [7]. In addition, the “32P-labeling in a kinase reaction with the Cdc2/cyclin B1 complex reconstituted from monomers” value in data set [4] is recorded as “this phosphorylation was enhanced when the cyclin-bound form was reconstituted”. Further, the “32P-labeling in a kinase reaction with monomeric Cdc2 as substrate” value in data set [6] was “it was capable of 32P-labeling monomeric Cdc2”.
